Reference: patent US20100028355A1
These are yes or no findings as the source states them, for the method shown. Binding seen in cells or lysates may run through a third protein. Some binding calls cover weakened binding; strength is not graded here. Tags and fused reporters may be left off the sequences shown.

Chains of the proteins cited; added tags and fusions are not shown. Residues count along the entry.
UniProt P35991, residues 2-659: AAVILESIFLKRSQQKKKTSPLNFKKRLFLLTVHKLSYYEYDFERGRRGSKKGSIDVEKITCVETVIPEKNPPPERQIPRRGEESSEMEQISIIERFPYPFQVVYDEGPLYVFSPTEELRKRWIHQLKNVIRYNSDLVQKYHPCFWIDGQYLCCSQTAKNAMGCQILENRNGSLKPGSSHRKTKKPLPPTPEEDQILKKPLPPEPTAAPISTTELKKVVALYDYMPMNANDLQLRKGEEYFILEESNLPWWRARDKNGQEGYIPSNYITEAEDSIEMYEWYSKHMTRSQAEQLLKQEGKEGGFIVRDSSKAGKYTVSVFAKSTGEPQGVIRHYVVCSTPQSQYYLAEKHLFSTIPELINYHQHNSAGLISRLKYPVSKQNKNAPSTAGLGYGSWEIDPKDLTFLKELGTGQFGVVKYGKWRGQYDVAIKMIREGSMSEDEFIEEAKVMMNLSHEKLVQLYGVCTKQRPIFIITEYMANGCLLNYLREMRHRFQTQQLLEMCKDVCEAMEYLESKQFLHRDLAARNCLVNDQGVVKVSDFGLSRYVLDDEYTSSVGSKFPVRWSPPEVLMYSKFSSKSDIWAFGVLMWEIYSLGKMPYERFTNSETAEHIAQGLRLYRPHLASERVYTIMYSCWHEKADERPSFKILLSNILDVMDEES

Legend:
[1] = target: Bruton's tyrosine kinase (BTK) (mouse) (UniProt P35991); assay: GST pull-down from mouse bone marrow cell lysate, Western blot with anti-BTK antibody
[2] = target: Bruton's tyrosine kinase (BTK) (mouse) (UniProt P35991); assay: GST pull-down from homogenate of mouse hind limb hypoxic tissue, Western blot with anti-BTK antibody
[3] = target: Bruton's tyrosine kinase (BTK) (mouse) (UniProt P35991); assay: GST pull-down from bone marrow cell lysate or ischemic tissue homogenate, Coomassie gel and anti-BTK/anti-GST blots (figure legend)

Measured: binding

B1: GST-HIMF fusion protein (protein, mouse, UniProt Q9EP95 24-111, looked up, not shown: a dimerising Fc or GST)
chain: DETIEIIVENKVKELLANPANYPSTVTKTLSCTSVKTMNRWASCPAGMTATGCACGFACGSWEIQSGDTCNCLCLLVDWTTARCCQLS
binds: all assays above
